Data taken from patent publication US20230075753A1.
No constants are given. Whether binding was seen depends on the method and setting. Some entries that bind do so weakly or less than the wild type.

Amino acid sequences for entries named in this document (tags omitted). Residues count along the entry.
UniProt Q9Y337, residues 67-293: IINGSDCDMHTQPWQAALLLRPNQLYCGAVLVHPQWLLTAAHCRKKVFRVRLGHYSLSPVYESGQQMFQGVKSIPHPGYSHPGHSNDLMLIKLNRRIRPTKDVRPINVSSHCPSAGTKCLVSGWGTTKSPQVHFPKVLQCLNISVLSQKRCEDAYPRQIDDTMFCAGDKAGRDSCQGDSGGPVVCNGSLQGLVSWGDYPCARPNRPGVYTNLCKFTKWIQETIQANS

Legend:
[1] = biological target: Human KLK5 produced in HEK293 cells with N-terminal TEV-cleavable 8xHis-tag, tag removed (human) (UniProt Q9Y337); experiment: SDS-PAGE of SEC peak fractions (FIG. 2 legend)
[2] = biological target: Human KLK5 produced in HEK293 cells with N-terminal TEV-cleavable 8xHis-tag, tag removed (human) (UniProt Q9Y337); experiment: size exclusion chromatography and SDS-PAGE of peak fractions; KLK5 pre-bound to LEKTI D5 or D8
[3] = biological target: Human KLK5 produced in HEK293 cells with N-terminal TEV-cleavable 8xHis-tag, tag removed (human) (UniProt Q9Y337); experiment: size exclusion chromatography (Superdex 200, PBS pH 7.2); Fab added to KLK5 already incubated with LEKTI D5 (1:1:1), ternary complex
[4] = biological target: Human KLK5 produced in HEK293 cells with N-terminal TEV-cleavable 8xHis-tag, tag removed (human) (UniProt Q9Y337); experiment: size exclusion chromatography (Superdex 200, PBS pH 7.2); Fab added to KLK5 already incubated with LEKTI D8 (1:1:1), ternary complex
[5] = biological target: Human KLK5 produced in HEK293 cells with N-terminal TEV-cleavable 8xHis-tag, tag removed (human) (UniProt Q9Y337); experiment: SDS-PAGE of the SEC peak fractions of Fig. 1 (co-elution of Fab 10236 with KLK5 in the presence of LEKTI D5, lane 3, or LEKTI D8, lane 5)

Measured: binding

B1: Rabbit Fab antibody 10236 (Fab, V domains shown)
VH: QSVEESGGRLVTPGTPLTLTCTVSGFPLSNYAMSWVRQAPGKGLEWIGDIYPSDIIDYASWAKGRFTISQTSTTVELKITGPTTEDTATYFCARDNNDYGLDIWGPGTLVTVSS
VL: AYDMTQTPASVEVAVGGTVTIKCQASQSISSWLAWYQQKPGQPPKLLIYLASTLASGVSSRFKGSGSGTQFTLTISGVECADAATYYCQQGYTNSNIINTFGGGTEVVVKR
binds: all assays above
